Data on one substance can be found in article PMC10090947.

Amino acid sequences for entries named in this document (tags omitted).
UniProt Q15678: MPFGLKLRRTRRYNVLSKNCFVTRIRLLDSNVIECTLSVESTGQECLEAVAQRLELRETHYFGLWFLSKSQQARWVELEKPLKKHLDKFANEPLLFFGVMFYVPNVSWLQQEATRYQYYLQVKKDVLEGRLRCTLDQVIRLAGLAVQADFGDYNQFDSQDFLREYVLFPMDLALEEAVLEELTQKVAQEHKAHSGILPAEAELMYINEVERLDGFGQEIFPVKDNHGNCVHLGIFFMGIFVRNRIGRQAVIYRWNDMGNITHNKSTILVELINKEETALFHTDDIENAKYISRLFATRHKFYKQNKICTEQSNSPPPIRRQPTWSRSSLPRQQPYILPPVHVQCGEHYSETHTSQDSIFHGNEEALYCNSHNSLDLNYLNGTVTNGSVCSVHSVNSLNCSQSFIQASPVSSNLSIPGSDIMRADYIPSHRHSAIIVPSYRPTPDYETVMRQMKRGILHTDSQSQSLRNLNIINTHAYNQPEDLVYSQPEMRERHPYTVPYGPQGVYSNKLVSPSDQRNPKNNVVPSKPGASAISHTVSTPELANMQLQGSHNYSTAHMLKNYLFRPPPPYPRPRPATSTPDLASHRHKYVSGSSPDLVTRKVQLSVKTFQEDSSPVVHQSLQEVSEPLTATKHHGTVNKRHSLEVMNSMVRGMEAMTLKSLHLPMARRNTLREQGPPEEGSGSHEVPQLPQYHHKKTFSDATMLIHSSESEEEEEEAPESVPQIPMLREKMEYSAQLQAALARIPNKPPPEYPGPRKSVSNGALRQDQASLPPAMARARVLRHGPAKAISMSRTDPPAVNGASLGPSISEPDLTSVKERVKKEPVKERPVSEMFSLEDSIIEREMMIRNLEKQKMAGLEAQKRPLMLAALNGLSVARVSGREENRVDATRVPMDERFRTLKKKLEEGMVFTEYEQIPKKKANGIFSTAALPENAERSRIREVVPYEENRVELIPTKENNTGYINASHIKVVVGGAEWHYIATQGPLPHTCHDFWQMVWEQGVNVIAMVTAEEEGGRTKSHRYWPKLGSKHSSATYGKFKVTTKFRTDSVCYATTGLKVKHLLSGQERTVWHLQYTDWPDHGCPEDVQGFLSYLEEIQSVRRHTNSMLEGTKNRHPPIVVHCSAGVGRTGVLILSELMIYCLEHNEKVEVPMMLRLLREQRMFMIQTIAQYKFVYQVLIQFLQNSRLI

No constants are given. Whether binding was seen depends on the method and setting. In cells and extracts the contact can be indirect. Some binding calls cover weakened binding; strength is not graded here.

The target in this test is T1, Large tumor suppressor 1 (LATS1), endogenous (human (endogenous in HEK293 and HEK293A)) (UniProt O95835).
T1 sequence: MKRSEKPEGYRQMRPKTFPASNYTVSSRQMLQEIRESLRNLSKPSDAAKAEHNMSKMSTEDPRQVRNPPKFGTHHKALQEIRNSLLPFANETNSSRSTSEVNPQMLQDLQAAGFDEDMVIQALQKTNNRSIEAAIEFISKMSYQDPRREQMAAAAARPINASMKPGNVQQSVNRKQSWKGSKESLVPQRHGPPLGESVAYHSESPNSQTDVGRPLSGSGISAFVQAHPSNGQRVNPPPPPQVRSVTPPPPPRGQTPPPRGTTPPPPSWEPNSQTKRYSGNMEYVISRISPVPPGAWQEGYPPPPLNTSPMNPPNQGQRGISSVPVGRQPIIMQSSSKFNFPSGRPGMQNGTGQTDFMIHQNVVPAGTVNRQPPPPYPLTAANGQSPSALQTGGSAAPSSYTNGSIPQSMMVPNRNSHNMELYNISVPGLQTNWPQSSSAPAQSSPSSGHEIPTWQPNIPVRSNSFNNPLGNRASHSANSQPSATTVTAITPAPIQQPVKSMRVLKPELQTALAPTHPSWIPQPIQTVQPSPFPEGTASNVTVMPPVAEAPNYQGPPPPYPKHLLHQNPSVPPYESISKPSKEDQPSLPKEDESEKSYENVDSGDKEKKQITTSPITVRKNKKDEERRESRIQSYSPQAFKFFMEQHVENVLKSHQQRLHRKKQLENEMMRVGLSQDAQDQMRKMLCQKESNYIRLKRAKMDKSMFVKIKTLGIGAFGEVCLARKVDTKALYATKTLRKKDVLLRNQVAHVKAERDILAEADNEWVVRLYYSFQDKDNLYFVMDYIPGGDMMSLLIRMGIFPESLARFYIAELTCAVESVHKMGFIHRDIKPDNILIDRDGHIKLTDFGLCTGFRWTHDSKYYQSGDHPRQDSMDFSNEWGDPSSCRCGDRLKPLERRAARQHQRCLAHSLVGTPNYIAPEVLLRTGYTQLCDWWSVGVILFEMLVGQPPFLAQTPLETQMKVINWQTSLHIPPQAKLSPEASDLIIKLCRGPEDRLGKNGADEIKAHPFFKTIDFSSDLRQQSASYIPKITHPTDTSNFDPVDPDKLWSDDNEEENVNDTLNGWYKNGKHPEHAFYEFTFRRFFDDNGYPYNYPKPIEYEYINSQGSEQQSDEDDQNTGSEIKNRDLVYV
The test can be described thus: cross-linking; AP-XL-MS: Strep-HA YAP1 and co-purified proteins on beads cross-linked with 1 mM DSS-d0/d12 at 37°C for 30 min; cross-linked peptides identified by MS with xQuest/xProphet (lysines < 30 Å apart).

For the substance “nonreceptor tyrosine phosphatase 14 (PTPN14), endogenous (from UniProt Q15678 1-1187) (enzyme)”, the binding entry was “binds”.
